Earlier results as cited in patent US5252581A, “Substituted aminothienopyridines, pharmaceutical composition and use” (Hoechst-Roussel Pharmaceuticals Inc., priority 1992, dated 1993).
For at least one compound, name, drawing or mass did not settle the structure.

Target: NMDA receptor
Details: extensively washed preparations of rat cortical membranes; read-out: EC50 for increase of specific binding of [^3 H]TCP; cited from earlier work

CN[C@H](CC(=O)O)C(=O)O [NMDA, N-methyl-D-aspartate]
EC50: 3.1 µM
